Data from patent publication US20160131656A1.
No constants are given. Whether binding was seen depends on the method and setting. Some entries that bind do so weakly or less than the wild type. For part of these data: Tags and fused reporters may be left off the sequences shown.

Assays:
[1] = biological target: T1, FAT1 recombinant cadherin Domain 12 (amino acid 1246 to 1352) (human) (UniProt Q14517); test: ELISA on recombinant domain
T1 sequence: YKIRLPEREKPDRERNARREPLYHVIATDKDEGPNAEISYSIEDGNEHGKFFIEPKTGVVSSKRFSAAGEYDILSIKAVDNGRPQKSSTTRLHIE

[2] = biological target: T2, shorter form of FAT1 Fragment A lacking the region overlapping with Fragment B (human) (UniProt Q14517); test: Western blot of transfected HeLa and HEK-293T cells
T2 sequence (looked up): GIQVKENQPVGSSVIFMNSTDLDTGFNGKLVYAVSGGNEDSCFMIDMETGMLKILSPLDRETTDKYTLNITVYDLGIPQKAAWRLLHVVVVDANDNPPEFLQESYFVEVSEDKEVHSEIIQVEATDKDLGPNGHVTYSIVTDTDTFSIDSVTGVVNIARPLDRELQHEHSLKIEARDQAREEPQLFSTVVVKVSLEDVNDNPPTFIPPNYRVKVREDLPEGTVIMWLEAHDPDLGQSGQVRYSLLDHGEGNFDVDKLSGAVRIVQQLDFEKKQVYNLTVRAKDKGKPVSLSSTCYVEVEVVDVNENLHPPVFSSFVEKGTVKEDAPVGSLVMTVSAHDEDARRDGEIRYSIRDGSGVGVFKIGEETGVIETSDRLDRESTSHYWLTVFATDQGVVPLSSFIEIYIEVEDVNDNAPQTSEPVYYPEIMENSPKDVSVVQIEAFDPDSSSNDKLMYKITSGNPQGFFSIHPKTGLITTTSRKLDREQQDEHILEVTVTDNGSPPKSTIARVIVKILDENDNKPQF

[3] = biological target: T2, shorter form of FAT1 Fragment A lacking the region overlapping with Fragment B (human); test: Western blot with mAb91.3 of total extracts of transfected HEK-293T cells
[4] = biological target: T1, FAT1 recombinant cadherin Domain 12 (amino acid 1246 to 1352) (human); test: Western blot with mAb91.3, recombinant Domain 12 loaded beside the cell extracts
[5] = biological target: FAT Tumor Suppressor Homolog 1 (FAT1) protein, human, endogenous in cancer cells and tissues (human) (UniProt Q14517); test: FACS on Colo205 cells with HEK-293T culture supernatant
[6] = biological target: FAT Tumor Suppressor Homolog 1 (FAT1) protein, human, endogenous in cancer cells and tissues (human) (UniProt Q14517); test: FACS on HCT15 and Colo205 cells
[7] = biological target: T3, FAT1 Fragment A (amino acid 723 to amino acid 1352), His6-V5 tagged, in transfected HeLa/HEK-293T cells (human) (UniProt Q14517); test: transfected HeLa/HEK-293T cells
T3 sequence: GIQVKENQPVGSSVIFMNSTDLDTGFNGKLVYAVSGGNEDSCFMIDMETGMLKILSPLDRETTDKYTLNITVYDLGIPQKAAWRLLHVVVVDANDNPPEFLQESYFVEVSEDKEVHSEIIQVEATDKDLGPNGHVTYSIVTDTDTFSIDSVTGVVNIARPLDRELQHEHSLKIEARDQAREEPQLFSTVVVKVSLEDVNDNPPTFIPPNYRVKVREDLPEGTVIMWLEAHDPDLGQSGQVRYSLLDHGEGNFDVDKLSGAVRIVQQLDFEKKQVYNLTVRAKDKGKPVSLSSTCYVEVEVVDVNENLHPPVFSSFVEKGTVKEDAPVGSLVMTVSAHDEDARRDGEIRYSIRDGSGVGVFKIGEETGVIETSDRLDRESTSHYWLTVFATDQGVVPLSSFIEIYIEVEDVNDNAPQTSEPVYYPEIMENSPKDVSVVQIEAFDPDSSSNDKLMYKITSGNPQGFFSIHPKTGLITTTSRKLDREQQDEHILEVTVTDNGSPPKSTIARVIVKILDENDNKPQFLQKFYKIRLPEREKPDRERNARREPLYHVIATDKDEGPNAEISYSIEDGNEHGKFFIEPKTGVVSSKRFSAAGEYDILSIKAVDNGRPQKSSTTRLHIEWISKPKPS

[8] = biological target: FAT Tumor Suppressor Homolog 1 (FAT1) protein, human, endogenous in cancer cells and tissues (human) (UniProt Q14517); test: FACS on colon cancer cells, 10 micrograms/ml
[9] = biological target: FAT Tumor Suppressor Homolog 1 (FAT1) protein, human, endogenous in cancer cells and tissues (human) (UniProt Q14517); test: FACS of colon cancer cells (cell line not printed on the sheet) loaded with mAb91.4 at 10 micrograms/ml for 30 min at 4 C, then shifted to 37 C; PE-conjugated secondary antibody

Measured: binding

B1: anti-FAT1 monoclonal antibody mAb91.3 (antibody, V domains shown)
VH: VQLQQSGSELVRPGASVKLSCKASGYTFTRSWMHWIKQRPGQGLEWIGNIYPGSGGTNYDEKFKSKATLTVDTSSSTAYMQLSSLTSEDSAIYYCTRSGGQRFDYWGQGTTLTVSS
VL: IVMTQSPAIMSAFSGEKVTMTCSASSSVSSMHWYQQKSSTSPKFWIYDTSKLASGVPGRFSGSGSGNSYSLTISSMEAEDVATYYCFQGSGYPFTFGGGTKLEIKR
binds: [1] | [2] | [3] | [4]

B2: recombinant mouse IgG2a antibody bearing the variable regions of mAb91.3 (antibody, V domains shown)
VH: VQLQQSGSELVRPGASVKLSCKASGYTFTRSWMHWIKQRPGQGLEWIGNIYPGSGGTNYDEKFKSKATLTVDTSSSTAYMQLSSLTSEDSAIYYCTRSGGQRFDYWGQGTTLTVSS
VL: IVMTQSPAIMSAFSGEKVTMTCSASSSVSSMHWYQQKSSTSPKFWIYDTSKLASGVPGRFSGSGSGNSYSLTISSMEAEDVATYYCFQGSGYPFTFGGGTKLEIKR
binds: [5]

B3: anti-FAT1 monoclonal antibody mAb91.4 (antibody, V domains shown)
VH: QSGSGLVRPGTSVKLSCKASGFTFTSNWMHWVKQRPGQGLDWIGNIYPGSGKTNYGEKFKSKATLTVDTSSSTAYIQLSSLTSEDSAVYYCTRSGGQRFDYWGQGTTLTVSS
VL: QSPAIMSAFTGEKVTMTCSASSSVACMHWYQQKSSTSPKLLIYDTSELASGVPGRFSGSGSGNSYSLTISSMEAEDVATYYCFQGSGYPLTFGGGTKLEIKR
binds: [6] | [7] | [8] | [9]
